Results: article PMC10115800, “Two assembly modes for SIN3 histone deacetylase complexes” (Cell Discovery, 2023)
Results are given in words; binding and its absence hold for the method and conditions named. Binding seen in cells or lysates may run through a third protein. Here binding means that the protein was enriched with, or labelled near, the bait; the list need not be complete. For some of these results: A no says only that the protein was not detected with the bait. Tags and fused reporters may be left off the sequences shown. Blank lines part the entries; values can stand above or below the binder they belong to.

Experiments:
[1] = biological target: T1, Pst3 with C-terminal 3× Flag-tag (S. pombe, UniProt O74755 1-1154); assay: affinity purification with mass spectrometry; Pst3-3×Flag as bait from S. pombe lysate (350 mM NaCl) on ANTI-FLAG M2 resin, FLAG peptide elution, glycerol gradient; SDS-PAGE bands analysed by LC-MS/MS
T1 construct: Pst3, Sin3 homolog of S. pombe, subunit of the SIN3L complex; PAH3, HID and HCR are resolved in the model; Endogenous protein; also called Pst3-Flag; Sin3 isoform Pst3; source: endogenous locus tagged, S. pombe; purified (ANTI-FLAG M2 resin, glycerol gradient); not shown: 3× Flag, C-terminal, kept
T1 sequence (looked up): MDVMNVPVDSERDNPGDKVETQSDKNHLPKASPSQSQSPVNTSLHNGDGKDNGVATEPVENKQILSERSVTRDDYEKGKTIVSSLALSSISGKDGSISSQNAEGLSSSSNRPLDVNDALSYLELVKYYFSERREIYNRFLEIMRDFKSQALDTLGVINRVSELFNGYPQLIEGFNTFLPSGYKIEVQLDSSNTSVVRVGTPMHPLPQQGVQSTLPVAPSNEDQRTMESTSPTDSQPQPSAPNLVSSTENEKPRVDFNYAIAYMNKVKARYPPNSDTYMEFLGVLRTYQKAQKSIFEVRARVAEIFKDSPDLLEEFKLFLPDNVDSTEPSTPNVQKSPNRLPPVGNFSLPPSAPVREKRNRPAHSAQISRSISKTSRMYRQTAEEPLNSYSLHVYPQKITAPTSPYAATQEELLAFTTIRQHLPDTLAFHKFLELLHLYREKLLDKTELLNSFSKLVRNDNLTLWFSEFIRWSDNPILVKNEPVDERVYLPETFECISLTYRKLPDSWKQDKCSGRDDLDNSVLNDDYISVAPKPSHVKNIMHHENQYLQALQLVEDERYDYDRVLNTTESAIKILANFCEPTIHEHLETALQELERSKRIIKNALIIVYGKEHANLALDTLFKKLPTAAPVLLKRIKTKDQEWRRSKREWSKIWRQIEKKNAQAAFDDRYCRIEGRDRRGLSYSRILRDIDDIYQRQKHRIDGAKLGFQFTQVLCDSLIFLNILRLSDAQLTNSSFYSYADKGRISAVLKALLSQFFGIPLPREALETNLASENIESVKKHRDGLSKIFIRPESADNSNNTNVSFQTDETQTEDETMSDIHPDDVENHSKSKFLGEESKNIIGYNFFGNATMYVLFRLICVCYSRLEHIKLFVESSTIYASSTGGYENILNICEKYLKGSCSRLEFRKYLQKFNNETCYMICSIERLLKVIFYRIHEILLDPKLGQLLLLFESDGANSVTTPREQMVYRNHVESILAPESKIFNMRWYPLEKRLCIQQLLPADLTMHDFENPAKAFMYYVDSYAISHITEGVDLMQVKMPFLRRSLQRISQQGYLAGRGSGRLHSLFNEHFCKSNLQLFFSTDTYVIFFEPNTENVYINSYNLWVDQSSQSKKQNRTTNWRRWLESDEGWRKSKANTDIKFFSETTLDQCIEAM

[2] = biological target: T2, Pst2 with C-terminal 3× Flag-tag (S. pombe, UniProt O13919 1-1075); assay: affinity purification with mass spectrometry; Pst2-3×Flag as bait from S. pombe lysate (350 mM NaCl) on ANTI-FLAG M2 resin, FLAG peptide elution, glycerol gradient; SDS-PAGE bands analysed by LC-MS/MS
T2 construct: Pst2, Sin3 homolog of S. pombe, organising subunit of the SIN3S complex; all five domains (PAH1/2/3, HID, HCR) are resolved; also called Pst2-Flag; Sin3 isoform Pst2; source: endogenous locus tagged, S. pombe; purified (ANTI-FLAG M2 resin, glycerol gradient); not shown: 3× Flag, C-terminal, kept
T2 sequence (looked up): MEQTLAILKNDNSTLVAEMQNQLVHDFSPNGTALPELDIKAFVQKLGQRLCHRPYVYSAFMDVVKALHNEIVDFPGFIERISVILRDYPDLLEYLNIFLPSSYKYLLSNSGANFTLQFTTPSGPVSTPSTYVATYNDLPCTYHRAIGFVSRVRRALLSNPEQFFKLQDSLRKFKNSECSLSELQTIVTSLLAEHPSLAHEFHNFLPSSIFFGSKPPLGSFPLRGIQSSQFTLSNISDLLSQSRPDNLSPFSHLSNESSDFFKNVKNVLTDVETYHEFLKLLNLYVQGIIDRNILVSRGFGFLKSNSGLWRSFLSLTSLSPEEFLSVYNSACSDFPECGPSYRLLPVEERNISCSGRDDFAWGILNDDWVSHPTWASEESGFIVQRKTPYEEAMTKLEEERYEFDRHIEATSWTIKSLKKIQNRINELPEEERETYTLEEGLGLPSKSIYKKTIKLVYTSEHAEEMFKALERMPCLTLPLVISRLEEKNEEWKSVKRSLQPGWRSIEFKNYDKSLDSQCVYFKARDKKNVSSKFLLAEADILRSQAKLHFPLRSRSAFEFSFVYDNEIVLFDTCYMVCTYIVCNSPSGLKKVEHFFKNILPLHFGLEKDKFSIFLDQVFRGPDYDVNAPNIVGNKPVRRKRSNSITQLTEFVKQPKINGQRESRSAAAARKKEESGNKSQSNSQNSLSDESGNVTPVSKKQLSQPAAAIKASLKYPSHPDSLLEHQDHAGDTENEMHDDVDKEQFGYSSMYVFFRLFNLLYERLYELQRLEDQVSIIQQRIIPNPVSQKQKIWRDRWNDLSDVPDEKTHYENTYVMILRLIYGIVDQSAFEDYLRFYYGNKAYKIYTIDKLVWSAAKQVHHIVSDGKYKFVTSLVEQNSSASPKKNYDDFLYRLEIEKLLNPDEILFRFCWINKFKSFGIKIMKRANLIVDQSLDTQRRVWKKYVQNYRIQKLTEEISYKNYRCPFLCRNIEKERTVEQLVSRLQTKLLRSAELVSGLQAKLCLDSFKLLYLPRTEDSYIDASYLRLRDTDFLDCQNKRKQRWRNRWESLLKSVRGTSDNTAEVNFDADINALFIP

- binding [1]: binds
- binding [2]: no binding
B1: start control protein Cdc10 (protein, UniProt P01129 1-767)
chain: MASANFIRQFELGNDSFSYQKRPEDEPSQPLSNRNINKLNDSSTLKDSSSRIFINSQVLRDGRPVELYAVECSGMKYMELSCGDNVALRRCPDSYFNISQILRLAGTSSSENAKELDDIIESGDYENVDSKHPQIDGVWVPYDRAISIAKRYGVYEILQPLISFNLDLFPKFSKQQQIESSSISKNLNTSSFNTRSPLRNHNFSNPSKSSKNGVHTINNMQSSPSPSSSFLLPLTQIDSQNVKRSNNYLSTSPPILEQRLKRHRIDVSDEDLHPSSQLNDNEASSLFPDTPRLNHSLSFVSLVSSLPPLDQNIMQDYHTSKDILTSIFLDVNFADSSALEAKLSDSLDLDVPIDELGHAALHWAAAVAKMPLLQALIHKGANPLRGNLTGETALMRSVLVTNHLNQNSFGDLLDLLYASLPCTDRAGRTVVHHICLTAGIKGRGSASRYYLETLLNWAKKHASGNNGYMLKDFINYLNHQDKNGDTALNIAARIGNKNIVEVLMQAGASAYIPNRAGLSVANFGIFVENALKQPEDSKQTKVSLMSENLSSKEKTAVPPRQKSRDIIASVTDVISSLDKDFQDEMAAKQSMIDSAYTQLRESTKKLSDLREQLHVSETQRTLFLELRQRCKNLMTSIEEQKSELSNLYESFDPNGIHDSLSLDADAPFTVNENNNKNLSIAELKFQVAAYERNEARLNELANKLWQRNSNIKSKCRRVVSLCTGVDESRVDSLLESLLQAVESDGQQGEVDMGRVAGFLRVVKEHQA

- binding [1]: binds
- binding [2]: no binding
B2: cell division cycle-related protein Res2 (protein, UniProt P41412 1-657)
chain: MAPRSSAVHVAVYSGVEVYECFIKGVSVMRRRRDSWLNATQILKVADFDKPQRTRVLERQVQIGAHEKVQGGYGKYQGTWVPFQRGVDLATKYKVDGIMSPILSLDIDEGKAIAPKKKQTKQKKPSVRGRRGRKPSSLSSSTLHSVNEKQPNSSISPTIESSMNKVNLPGAEEQVSATPLPASPNALLSPNDNTIKPVEELGMLEAPLDKYEESLLDFFLHPEEGRIPSFLYSPPPDFQVNSVIDDDGHTSLHWACSMGHIEMIKLLLRANADIGVCNRLSQTPLMRSVIFTNNYDCQTFGQVLELLQSTIYAVDTNGQSIFHHIVQSTSTPSKVAAAKYYLDCILEKLISIQPFENVVRLVNLQDSNGDTSLLIAARNGAMDCVNSLLSYNANPSIPNRQRRTASEYLLEADKKPHSLLQSNSNASHSAFSFSGISPAIISPSCSSHAFVKAIPSISSKFSQLAEEYESQLREKEEDLIRANRLKQDTLNEISRTYQELTFLQKNNPTYSQSMENLIREAQETYQQLSKRLLIWLEARQIFDLERSLKPHTSLSISFPSDFLKKEDGLSLNNDFKKPACNNVTNSDEYEQLINKLTSLQASRKKDTLYIRKLYEELGIDDTVNSYRRLIAMSCGINPEDLSLEILDAVEEALTREK

- binding [1]: binds
- binding [2]: no binding
B3: pre-mRNA-processing factor Prp39 (protein, UniProt O74970 1-612)
chain: MDYGDIYIAEETEWDKYNRQINKNPDDFDAWEGLVRASEHLEGGVGRNSSKQAINTLRSVYDRFLGKYPLLFGYWKKYADFEFFVAGAEASEHIYERGIAGIPHSVDLWTNYCAFKMETNGDANEVRELFMQGANMVGLDFLSHPFWDKYLEFEERQERPDNVFQLLERLIHIPLHQYARYFERFVQVSQSQPIQQLLPPDVLASIRADVTREPAKVVSAGSKQITVERGELEIEREMRARIYNIHLQIFQKVQLETAKRWTFESEIKRPYFHVKELDEAQLVNWRKYLDFEEVEGDFQRICHLYERCLITCALYDEFWFRYARWMSAQPDHLNDVSIIYERASCIFASISRPGIRVQYALFEESQGNIASAKAIYQSILTQLPGNLEAVLGWVGLERRNAPNYDLTNAHAVLRSIINEGKCNTGITEVLITEDIKLVWKIEGDIELARNMFLQNAPALLDCRHFWISFLRFELEQPLNSKNYTEHHARVSNVMEMIRNKTRLPPRTIMDLTKLYMEYLCHQSNDPSVLQEYLLIDRDVFGPFSVRESHWKKLDEGQDLKQVSTRLLSTNGHPGISVNEAKIKSGESPYEKYYRLQGVVETVTSGVAANGSS

- binding [1]: binds
- binding [2]: no binding
B4: Atf1 (protein, UniProt P52890 1-566)
chain: MSPSPVNTSTEPASVAAVSNGNATASSTQVPENNQSDSFAPPSNNSQQNQQSSTIAPNGGAGSVANANPADQSDGVTPSFVGSLKLDYEPNPFEHSFGSTASVGQGNPSLNRNPSLSNIPSGVPPAFARTLLPPVSSIASPDILSGAPGIASPLGYPAWSAFTRGTMHNPLSPAIYDATLRPDYLNNPSDASAAARFSSGTGFTPGVNEPFRSLLTPTGAGFPAPSPGTANLLGFHTFDSQFPDQYRFTPRDGKPPVVNGTNGDQSDYFGANAAVHGLCLLSQVPDQQQKLQQPISSENDQAASTTANNLLKQTQQQTFPDSIRPSFTQNTNPQAVTGTMNPQASRTQQQPMYFMGSQQFNGMPSVYGDTVNPADPSLTLRQTTDFSGQNAENGSTNLPQKTSNSDMPTANSMPVKLENGTDYSTSQEPSSNANNQSSPTSSINGKASSESANGTSYSKGSSRRNSKNETDEEKRKSFLERNRQAALKCRQRKKQWLSNLQAKVEFYGNENEILSAQVSALREEIVSLKTLLIAHKDCPVAKSNSAAVATSVIGSGDLAQRINLGY

- binding [1]: binds
- binding [2]: no binding
B5: cell division cycle-related protein Res1 (protein, UniProt P33520 1-637)
chain: MYNDQIHKITYSGVEVFEYTINGFPLMKRCHDNWLNATQILKIAELDKPRRTRILEKFAQKGLHEKIQGGCGKYQGTWVPSERAVELAHEYNVFDLIQPLIEYSGSAFMPMSTFTPQSNRKPTEAYRRNSPVKKSFSRPSHSLLYPYTSSNNMTSTSRMSGIHDALSLQSDFTRSPDMPSDSFTGSLHDIKASPFSSNNYAQSLLDYFLLPNTTQPPDFVYDRPSDWDVNAGIDEDGHTALHWAAAMGNLEMMHALLQAGANVVAVNYLQQTSLMRCVMFTMNYDLQTFEVVSELLQSAICMNDSFGQTVFHHIALLASSKSKMEAARYYMDILLQNLTATQSVDVAAQIINLQDDHGDTALLICARNGAKKCARLLLSFYASSSIPNNQGQYPTDFLSSKDMSFPENDDSPLNSKIEDNLIDNLKYPQSLDDHLSSKKPISYFSNKLTHQTLPNVFTQLSELSKCHEASLAEKQLTYNLAMEALEQTVRETETCQRLWNERTNNDENYLVNQREDLIHQCKKFLHTLKTARYYLETVQLHQLKKYVTYFSQIWSTDELADISETKNLVGHDTKTNRSSLSSKHEVDLFTAENEAAREKLVEQLCSLQAQRKQKINEILNLLSMGMYNTINTDQSGS
